# Assay results as given in BindingDB's records for patent US11547697 (Millennium Pharmaceuticals, 2023).
# Target: Serine/threonine-protein kinase mTOR (Homo sapiens, UniProt P42345)
# Assay: Inhibition Assays of mTOR
compound,measurement,value
"Nc1nc2cc(-c3ccc4nccc(-c5ccncc5)c4c3)ccc2o1 [US11547697, Compound 1]",IC50,< 1000 nM
